“And” between values parts separate entries of the source, which are not always exact repeats. Equal values may be shown once. Where a name gives a salt, the structure may show the parent alone. ± gives the standard deviation of the averaged measurements. This is one part of the list. Plates or batches differ in their baseline, so values are only roughly comparable.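 Primary human stellate myofibroblasts activated in culture; inactivation shown by regained lipid droplets. Readout: fraction of Hoechst-counted cells exceeding a per-plate Bodipy threshold, duplicate wells, each plate with DMSO negative and nortriptyline positive controls. Hits: control-normalized score beyond the plate's top-tenth-percentile nortriptyline wells, or among its three best wells. Final well concentrations unstated.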

For the experiment, the system named is primary human hepatic stellate cells (donor 1). Briefly: percent Bodipy-positive cells; higher = more lipid droplet accumulation. Particulars: 48 h.
Setting [1] is: library stock concentration: 10 mM.
Where [2] appears, read: library stock concentration: 3.33 mM.
Where [3] appears, read: library stock concentration: 1 mM.
The mark [4] stands for this setting: library stock concentration: 4.8 mM.

Regarding `NC1(Cc2ccc(Cl)cc2)CCN(c2ncnc3[nH]ccc23)CC1`, the “percent Bodipy-positive cells” value under setting [1] amounted to 97.64 ± 0.41%.
The same measure, in the same setting: for `FC(F)(F)c1cc(COC2CCCNC2c2ccccc2)cc(C(F)(F)F)c1` [L-733,060 hydrochloride] the value was 89.5 ± 7.7%.
Take `COc1cc(Cc2cnc(N)nc2N)cc(OC)c1OC` [Trimethoprim]: the “percent Bodipy-positive cells” value is 26.2 ± 4.2%. Moreover, under setting [2], the “percent Bodipy-positive cells” value stood at 10.5 ± 4.4%. The “percent Bodipy-positive cells” value (library stock concentration: 6.9 mM) was 8.29% and 14.1%. Under setting [1], the “percent Bodipy-positive cells” value is 25.8% and 28.4% and 13.3%.
On to `NC(=O)C(=O)O` [Sodium Oxamate], for which, under setting [1], the “percent Bodipy-positive cells” value came to 32.9 ± 7.7%.
Still for that read-out and setting: to `COc1ccccc1OCCNCC(O)COc1cccc2[nH]c3ccccc3c12` (stereo not drawn) [Carvedilol] belongs 94.9 ± 0.14%.
On to `NC(=O)CCC/C=C\C[C@@H]1[C@@H](/C=C/[C@@H](O)CCc2ccccc2)[C@H](O)C[C@@H]1O` [17-phenyl trinor Prostaglandin F2.alpha. amide], for which the “percent Bodipy-positive cells” value under setting [3] came to 15.9 ± 4.5%.
With `COCC1=C(C(=O)OC(C)OC(=O)OC(C)C)N2C(=O)[C@@H](NC(=O)/C(=N\OC)c3csc(N)n3)[C@H]2SC1` (stereo partly drawn), the “percent Bodipy-positive cells” value under setting [1] was found to be 6.39 ± 4%.
Take `COCC1=C(C(=O)OC(C)OC(=O)OC(C)C)N2C(=O)[C@@H](NC(=O)/C(=N\OC)c3csc(N)n3)[C@H]2SC1` (stereo partly drawn) [Cefpodoxime proxetil]: the “percent Bodipy-positive cells” value (library stock concentration: 3.6 mM) came out at 14 ± 6.7%.
Turning to `CCN(CC)CCOC(=O)C(c1ccccc1)C1CCCCC1` (stereo not drawn) [Drofenine hydrochloride], the “percent Bodipy-positive cells” value was 35.7 ± 0.62%. Besides, the “percent Bodipy-positive cells” value under setting [1] was determined as 62.7 ± 5.7%.
`CN(C)c1cc2c(Nc3ccc4c(cnn4Cc4ccccc4)c3)ncnc2cn1`: under setting [1], the “percent Bodipy-positive cells” value was 77.3 ± 6.6%.
On to `COc1ccc([C@H]2CNC(=O)C2)cc1OC1CCCC1` [(S)-(+)-Rolipram], for which the “percent Bodipy-positive cells” value under setting [1] amounted to 12.1 ± 7.3%.
`CCC(C)C(COC(Cc1ccccc1)C(=O)NC(CCS(C)(=O)=O)C(=O)OC(C)C)NCC(N)CS` (stereo not drawn): the “percent Bodipy-positive cells” value (library stock concentration: 7.9 mM) amounted to 30.9 ± 2.3%.
On to `COc1ccccc1C1(O)CCN(CCCn2c3ccccc3c3ccccc32)CC1` [NNC 05-2090 hydrochloride], for which the “percent Bodipy-positive cells” value under setting [1] is 96.49 ± 0.93%.
For `CC(CCCO)C1CCC2C3C(O)CC4CC(=O)CCC4(C)C3CC(O)C12C` (stereo not drawn) [3-keto Petromyzonol], the “percent Bodipy-positive cells” value under setting [3] is 16.7 ± 9.8%.
As for `NC(N)=NCc1cccc(I)c1` [m-Iodobenzylguanidine hemisulfate], the “percent Bodipy-positive cells” value under setting [1] is 32.9 ± 2.5%.
For `CCCCC(CC)CN1CN(CC(CC)CCCC)CC(C)(N)C1` (stereo not drawn) [Hexetidine], the “percent Bodipy-positive cells” value is 38.9 ± 14%. Also, the “percent Bodipy-positive cells” value under setting [1] is 71.4 ± 3.2%.
For `COc1cc2c(cc1OC)C(=O)C(CC1CCN(Cc3ccccc3)CC1)C2` (stereo not drawn) [Donepezil], under setting [1], the “percent Bodipy-positive cells” value came to 32.8 ± 15%.
Regarding `COc1cc2c(cc1OC)C(=O)C(CC1CCN(Cc3ccccc3)CC1)C2` (stereo not drawn) [Donepezil hydrochloride], the “percent Bodipy-positive cells” value under setting [4] amounted to 36.1 ± 8.7%.
As for `C=CC(=O)c1ccc2ccccc2c1`, under setting [1], the “percent Bodipy-positive cells” value stood at 6.83 ± 0.56%.
As to `NC[C@H]1c(c2C[C@@H]([C@]3(C4)CC(CC45)CC(C5)C3)O1)ccc(O)c2O.Cl`, the “percent Bodipy-positive cells” value under setting [1] stood at 76.6 ± 3.6%.
For the compound `O=C(O)CCC/C=C\C[C@@H]1[C@@H](/C=C/C(=O)COc2cccc(C(F)(F)F)c2)[C@H](O)C[C@@H]1O` [15-keto Fluprostenol], the “percent Bodipy-positive cells” value under setting [3] turned out to be 16.5 ± 7.4%.
`N#CC(=C(/N)Sc1ccccc1N)/C(C#N)=C(/N)Sc1ccccc1N`: the “percent Bodipy-positive cells” value was 17.1% and 5.83% under setting [1]; 20.3 ± 3.9% (library stock concentration: 13.1 mM).
Consider `NS(=O)(=O)c1cccc2c1c([N+](=O)[O-])cc1nc(O)c(O)nc12` [NBQX disodium salt], for which the “percent Bodipy-positive cells” value under setting [1] turned out to be 8.57 ± 1.6%.
On the same count and under the same terms, to `NS(=O)(=O)c1cccc2c1c([N+](=O)[O-])cc1nc(O)c(O)nc12` [NBQX disodium] belongs 34.4 ± 11%; to `NS(=O)(=O)c1cccc2c1c([N+](=O)[O-])cc1nc(O)c(O)nc12`, 7.19 ± 2.6%.
As for `CC(=O)c1ccc2c(c1)N(CCCN1CCC(CCO)CC1)c1ccccc1S2` [Piperacetazine], the “percent Bodipy-positive cells” value was 35.2 ± 3.8%.
In the case of `CCCCCCCCCCCCCCCC(=O)OCC` [Palmitic Acid ethyl ester], the “percent Bodipy-positive cells” value under setting [3] amounted to 11.3 ± 3.9%.
For `N#CC(=Cc1ccc(O)c(O)c1)C(=O)NCc1ccccc1` [AG-490 (Tyrphostin B42)], the “percent Bodipy-positive cells” value came out at 7.67 ± 0.99% under setting [2] and 16.1 ± 9.8% under setting [1].
In the case of `CO[C@@]1(NC(=O)Cc2cccs2)C(=O)N2C(C(=O)O)=C(COC(N)=O)CS[C@@H]21` [Cefoxitin sodium], the “percent Bodipy-positive cells” value was determined as 10.2 ± 0.93% (library stock concentration: 4.5 mM) and 28.2 ± 16% under setting [1].
For `CO[C@@]1(NC(=O)Cc2cccs2)C(=O)N2C(C(=O)O)=C(COC(N)=O)CS[C@@H]21` [Cefoxitin sodium salt], the “percent Bodipy-positive cells” value came out at 8.4 ± 1.5%.
As for `Br.CN(C)CCCC1(c2ccc(F)cc2)OCc2cc(C#N)ccc21` (stereo not drawn) [Citalopram hydrobromide], the “percent Bodipy-positive cells” value under setting [1] worked out at 89.94 ± 0.78%.
Regarding `COc1ccccc1-c1cc(Nc2cccc(CS(N)(=O)=O)c2)ncn1`, the “percent Bodipy-positive cells” value is 54.4 ± 8.5% under setting [2] and 67.8 ± 7.5% under setting [1].
As to `CC1(COc2ccc3c(c2)ncn3-c2ccc3cccc(N4CCC(N)CC4)c3n2)COC1`, the “percent Bodipy-positive cells” value under setting [1] turned out to be 95.13 ± 0.56%.
Take `Cc1cncc(CN2CCC(=C3c4ccc(Cl)cc4CCc4cccnc43)CC2)c1.O=C(O)C=CC(=O)O` [Rupatadine Fumarate]: under setting [1], the “percent Bodipy-positive cells” value came to 63.9 ± 0.84%.
For the compound `CCCCCCCCCCCCC/C=C/[C@@H](O)[C@H](CO)NC(=O)CCCCCCCCCCCCCCC` [C16 Ceramide], under setting [3], the “percent Bodipy-positive cells” value was 13.1 ± 14%.
As to `O=C(CCCN1CCC(O)(c2ccc(Br)cc2)CC1)c1ccc(F)cc1` [Bromperidol], the “percent Bodipy-positive cells” value was 68.3 ± 1.6%. In addition, the “percent Bodipy-positive cells” value under setting [4] stood at 74.1 ± 21%.
Consider `C[C@@H](Oc1cc(-n2cnc3ccc(CN4CCN(C)CC4)cc32)sc1C(N)=O)c1ccccc1C(F)(F)F`, for which the “percent Bodipy-positive cells” value reads like this: (library stock concentration: 80 uM) 13.8 ± 2.8%; (library stock concentration: 400 uM) 23.9 ± 5%; under setting [1], 99.67 ± 0.47%.
On to `CNCC[C@H](Oc1cccc2ccccc12)c1cccs1`, for which, under setting [1], the “percent Bodipy-positive cells” value was found to be 98.59 ± 0.34%.
`CNCC[C@H](Oc1cccc2ccccc12)c1cccs1` [Duloxetine HCl]: the “percent Bodipy-positive cells” value reads like this: under setting [2], 61.9 ± 1.3%; under setting [1], 99.59 ± 0.58%.
Take `CC1CCC(C(C)C)C(O)C1` (stereo not drawn) [Menthol(-)]: under setting [1], the “percent Bodipy-positive cells” value was found to be 35.7 ± 3.9%.
On to `O=C(O)CC[C@H]1CC[C@@](c2cc(F)ccc2F)(S(=O)(=O)c2ccc(Cl)cc2)CC1`, for which the “percent Bodipy-positive cells” value by setting is: under setting [2], 5.16 ± 1.4%; under setting [1], 6.91 ± 0.15%.
The like results for `C/C=C1\NC(=O)[C@H]2CSSCC/C=C/[C@H](CC(=O)N[C@H](C(C)C)C(=O)N2)OC(=O)[C@H](C(C)C)NC1=O` [Romidepsin (FK228, Depsipeptide)] were, in that order, 94.2 ± 4.4% and 100%.
In the case of `COc1ccc2c(c1)N(C[C@H](C)CN(C)C)c1ccccc1S2` [Methotrimeprazine maleat salt], the “percent Bodipy-positive cells” value came to 52.1 ± 2.1%.

Values taken from the supplement of paper PMC9135407.
